Results are given in words; binding and its absence hold for the method and conditions named. Binding seen in cells or lysates may run through a third protein. A result given as binding can be weak or reduced; the word gives no strength. Tags and fused reporters may be left off the sequences shown.

Assay [1] concerns the target Flag-tagged BRCA1 deletion mutant ΔBRCT (UniProt P38398). Kind of assay: co-IP; Flag-tagged BRCA1 (wild type, ΔRING, ΔBRCT) co-transfected with HA-tagged IARS1 in HEK293T, anti-Flag immunoprecipitation, immunoblot with anti-HA. A general note: Immunoblotting shows a protein as a band on a membrane.
For assay [2], the target named is Flag-tagged BRCA1 deletion mutant ΔRING (UniProt P38398). The description is as above.

B1: HA-tagged IARS1 (enzyme, UniProt P41252 1-1262)
chain: MLQQVPENINFPAEEEKILEFWTEFNCFQECLKQSKHKPKFTFYDGPPFATGLPHYGHILAGTIKDIVTRYAHQSGFHVDRRFGWDCHGLPVEYEIDKTLGIRGPEDVAKMGITEYNNQCRAIVMRYSAEWKSTVSRLGRWIDFDNDYKTLYPQFMESVWWVFKQLYDKGLVYRGVKVMPFSTACNTPLSNFESHQNYKDVQDPSVFVTFPLEEDETVSLVAWTTTPWTLPSNLAVCVNPEMQYVKIKDVARGRLLILMEARLSALYKLESDYEILERFPGAYLKGKKYRPLFDYFLKCKENGAFTVLVDNYVKEEEGTGVVHQAPYFGAEDYRVCMDFNIIRKDSLPVCPVDASGCFTTEVTDFAGQYVKDADKSIIRTLKEQGRLLVATTFTHSYPFCWRSDTPLIYKAVPSWFVRVENMVDQLLRNNDLCYWVPELVREKRFGNWLKDARDWTISRNRYWGTPIPLWVSDDFEEVVCIGSVAELEELSGAKISDLHRESVDHLTIPSRCGKGSLHRISEVFDCWFESGSMPYAQVHYPFENKREFEDAFPADFIAEGIDQTRGWFYTLLVLATALFGQPPFKNVIVNGLVLASDGQKMSKRKKNYPDPVSIIQKYGADALRLYLINSPVVRAENLRFKEEGVRDVLKDVLLPWYNAYRFLIQNVLRLQKEEEIEFLYNENTVRESPNITDRWILSFMQSLIGFFETEMAAYRLYTVVPRLVKFVDILTNWYVRMNRRRLKGENGMEDCVMALETLFSVLLSLCRLMAPYTPFLTELMYQNLKVLIDPVSVQDKDTLSIHYLMLPRVREELIDKKTESAVSQMQSVIELGRVIRDRKTIPIKYPLKEIVVIHQDPEALKDIKSLEKYIIEELNVRKVTLSTDKNKYGIRLRAEPDHMVLGKRLKGAFKAVMTSIKQLSSEELEQFQKTGTIVVEGHELHDEDIRLMYTFDQATGGTAQFEAHSDAQALVLLDVTPDQSMVDEGMAREVINRIQKLRKKCNLVPTDEITVYYKAKSEGTYLNSVIESHTEFIFTTIKAPLKPYPVSPSDKVLIQEKTQLKGSELEITLTRGSSLPGPACAYVNLNICANGSEQGGVLLLENPKGDNRLDLLKLKSVVTSIFGVKNTELAVFHDETEIQNQTDLLSLSGKTLCVTAGSAPSLINSSSTLLCQYINLQLLNAKPQECLMGTVGTLLLENPLGQNGLTHQGLLYEAAKVFGLRSRKLKLFLNETQTQEITEDIPVKTLNMKTVYVSVLPTTADF
For the molecule B1, the binding result in assay [1] and in assay [2] was “binds” throughout.
